Screen size: about 140,000 compounds; about 4,300 (3.1%) were called active. Inconclusive means that the source gave no clear call. Such entries were picked first, then a sample of the others.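 The calls were made as follows: active = readout at or below -70, meaning at least 70% loss of cells showing the perinucleolar compartment, a nuclear body marking cancer cells; inconclusive = readout between -30 and a set limit; inactive = the rest.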
Assay: High Content Assay for Compounds that inhibit the Assembly of the Perinucleolar Compartment;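 also: plate controls were DMSO wells for no effect and camptothecin positive control wells for full effect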
Details: PC3M PTB-GFP, PNC prevalence imaging, 16 h; at 10 µM; hits give low values
How it was run: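 Compounds are pinned in duplicate onto adhered PC3M cells stably expressing GFP-tagged PTB and incubated 16 h at 37 C. Cells are then fixed, nuclei stained with Hoechst, and PNC-positive cells counted.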
For `Cc1cccc(-c2n[nH]c(=S)n2/N=C/c2ccc(C)s2)c1`, the activity change (PNC), negative = inhibition was inconclusive: -48.4%. For `CC(C)Cn1c2c(c(=O)[nH]c1=O)C(C(F)(F)F)(C(F)(F)F)N=C(CCC1CCCCC1)N2`, the activity change (PNC), negative = inhibition was inconclusive: -36.5%. In the case of `Cc1nn(C)c(C)c1/C=N/NC(=O)c1csc2ccccc12`, the activity change (PNC), negative = inhibition is reported as inconclusive: -77.5%. With `CC(=O)Nc1ccc(C(=O)Cn2nnc3ccccc3c2=O)cc1` the activity change (PNC), negative = inhibition was inconclusive: -64.2%. With `O=C(NCc1ccco1)c1ccccc1Br` the activity change (PNC), negative = inhibition was inconclusive: -58.9%. For `CCCSc1nnc(C(C)C)n1N`, the activity change (PNC), negative = inhibition was inactive: 41.1%. In the case of `CC(C)c1ccc(NC2(C#N)C(=O)Nc3ccccc32)cc1` (centres undefined), the activity change (PNC), negative = inhibition is reported as inconclusive: -49.4%. In the case of `CSC1=NCCN1C(=O)COc1ccc2ccccc2c1`, the activity change (PNC), negative = inhibition is reported as inconclusive: -38.4%. With `CCn1c(CNc2ccc(OC)cc2)nnc1SCC(=O)Nc1ccc(F)cc1` the activity change (PNC), negative = inhibition was inactive: 14%. With `O=C(CN1C(=O)c2ccccc2C1=O)Nc1nc(-c2cccc([N+](=O)[O-])c2)cs1` the activity change (PNC), negative = inhibition was inactive: 32.8%. For `CCn1c(=O)c(C(=O)NCc2cccnc2)c(O)c2ccccc21`, the activity change (PNC), negative = inhibition was inconclusive: -71.2%. With `CCn1nnnc1-c1ccc(OC)c(S(=O)(=O)Nc2ccc(C(=O)OC)cc2)c1` the activity change (PNC), negative = inhibition was inconclusive: -66.1%. With `CCOC(=O)C1=C(O)/C(=C\c2ccc(CNC(=O)C(=O)Nc3ccccc3)o2)N=C1C` the activity change (PNC), negative = inhibition was inconclusive: -49.2%. With `Cc1[nH]nc2c1C(c1ccc(-c3ccccc3C#N)o1)C(C#N)=C(N)O2` (centres undefined) the activity change (PNC), negative = inhibition was inactive: -28.9%. For `COc1ccc(CCNC(=O)c2cc(C(=O)c3cc(C)ccc3O)cn(CCc3ccc(OC)cc3)c2=O)cc1`, the activity change (PNC), negative = inhibition was inconclusive: -48.5%. In the case of `CCCC(=O)Nc1ccc(NC(=O)C23CC4CC(CC(C4)C2)C3)cn1`, the activity change (PNC), negative = inhibition is reported as inconclusive: -71.2%. With `CCN1CCN(C(=O)CCCn2c(C)c3cnn(-c4ccccc4)c(=O)c3c2C)CC1` the activity change (PNC), negative = inhibition was inconclusive: -33.3%. For `CCOC(=O)Cc1csc(N/N=C/c2ccccc2)n1`, the activity change (PNC), negative = inhibition was inactive: -5.54%. In the case of `CCCCCSc1nc2c(c(=O)[nH]c(=O)n2C)n1C`, the activity change (PNC), negative = inhibition is reported as inactive: -7.82%. For `N#Cc1nc(-c2cccs2)oc1N1CCN(c2ccccc2)CC1`, the activity change (PNC), negative = inhibition was inactive: 1.12%. With `CS(=O)(=O)N1CCCC(C(=O)NCCCN2CCOCC2)C1` (centres undefined) the activity change (PNC), negative = inhibition was inconclusive: -30.1%. For `COc1ccccc1C(=O)Nc1ccc2c(c1)nc(CN1CCN(C(C)=O)CC1)n2C`, the activity change (PNC), negative = inhibition was inconclusive: -33.6%. With `O=S(=O)(NCc1cc(-c2ccccc2Cl)no1)c1ccc(Cl)cc1` the activity change (PNC), negative = inhibition was inactive: 10.6%. In the case of `O=C1c2ccccc2C(=O)N1CCCCN(C(=O)c1cccc([N+](=O)[O-])c1)c1ccc(Cl)cc1`, the activity change (PNC), negative = inhibition is reported as inactive: 57.9%. For `CCN1CCN(c2nc3c(C)cccn3c(=O)c2/C=C(\C#N)S(=O)(=O)c2ccc(C)cc2)CC1`, the activity change (PNC), negative = inhibition was inconclusive: -51.7%. With `O=C(NCc1ccc2c(c1)OCO2)c1cc(-n2cnnc2)ccc1Cl` the activity change (PNC), negative = inhibition was inconclusive: -64.1%. In the case of `Cc1ccc(C)c(OCC(O)CN2C(C)CCCC2C)c1` (centres undefined), the activity change (PNC), negative = inhibition is reported as inconclusive: -32.9%. In the case of `Cc1ncc(C23CC4CC(CC(C4)C2)C3)[nH]1`, the activity change (PNC), negative = inhibition is reported as inconclusive: -67.1%. For `Cn1c(Cn2c(=O)sc3ccccc32)nnc1SCC(=O)NC1CCCCC1`, the activity change (PNC), negative = inhibition was inconclusive: -30.3%. For `O=C(CSc1nnnn1Cc1ccccc1)NCC(=O)c1ccccc1`, the activity change (PNC), negative = inhibition was inconclusive: -32.3%. In the case of `Cc1ccc(Nc2nc(N)nc(CN3CCN(c4ccccc4)CC3)n2)cc1Cl`, the activity change (PNC), negative = inhibition is reported as inactive: 5.86%. With `COc1ccc2nc(NC(=O)CCNS(=O)(=O)c3ccc4c(c3)oc(=O)n4C)sc2c1` the activity change (PNC), negative = inhibition was inactive: 28.8%. In the case of `CCOC(=O)C1(O)CSc2nc3sc(C(=O)O)c(C)c3c(=O)n21` (centres undefined), the activity change (PNC), negative = inhibition is reported as inconclusive: -48.3%. In the case of `CCN1C(c2ccccc2)=C(c2ccccc2)S/C1=C/C=C1\SC(=S)N(C)C1=O`, the activity change (PNC), negative = inhibition is reported as inactive: -6.66%. In the case of `O=C(N/N=C/c1ccccc1F)c1csc2c1CCCC2`, the activity change (PNC), negative = inhibition is reported as inconclusive: -38.7%. For `CCOC(=O)N1CCN(CC(O)COc2ccccc2C(C)(C)C)CC1` (centres undefined), the activity change (PNC), negative = inhibition was inactive: 9.47%. With `COc1ccccc1/C=C/C(=O)OCC(=O)NNC(=O)c1ccccc1` the activity change (PNC), negative = inhibition was inconclusive: -36%. For `COc1ccc(NC(=S)N2CCNC(=O)C2CC(=O)Nc2cccc(Cl)c2C)cc1` (centres undefined), the activity change (PNC), negative = inhibition was inconclusive: -50.1%. In the case of `Nc1c2c(nc3sc4c(c13)CCCC4)CCCCCC2`, the activity change (PNC), negative = inhibition is reported as inconclusive: -34.1%. For `CC(C)Oc1ccccc1C1Nc2ccccc2C(=O)N1c1ccc2c(c1)OCCO2` (centres undefined), the activity change (PNC), negative = inhibition was inconclusive: -41.6%. With `O=C1CSC(=NC(=O)c2ccccc2)N1` the activity change (PNC), negative = inhibition was inconclusive: -63.3%. In the case of `CCN(CC)CC#CCC1(O)c2ccccc2-c2ccccc21`, the activity change (PNC), negative = inhibition is reported as inconclusive: -40.7%. With `CNC(=O)COC(=O)c1cc2c(C)nn(-c3ccc(F)cc3)c2s1` the activity change (PNC), negative = inhibition was inconclusive: -54.6%. For `COc1ccc(CN2CCn3ncc(C(=O)Nc4cccc(C)c4)c3C2=O)cc1`, the activity change (PNC), negative = inhibition was inconclusive: -56.8%. In the case of `Cc1ccc(C(=O)Oc2oc(-c3ccco3)nc2C=Nc2ccccc2)cc1`, the activity change (PNC), negative = inhibition is reported as inactive: 1.8%. In the case of `CCN(C(=O)CN1CCN(c2ccc(O)cc2)CC1)c1c(N)n(Cc2ccccc2)c(=O)[nH]c1=O`, the activity change (PNC), negative = inhibition is reported as inactive: -5.33%. With `CCn1c(C(=O)N2CCC(C(=O)NCCCSC3CCCCC3)CC2)cc2sccc21` the activity change (PNC), negative = inhibition was inactive: -18.4%. With `Cc1cc(C)cc(NC(=O)Cc2ccc(-n3cccc3)cc2)c1` the activity change (PNC), negative = inhibition was inconclusive: -34.9%. With `CC1Cc2ccccc2N1C(=O)CSc1nnc2n1C(C)(C)Cc1ccccc1-2` (centres undefined) the activity change (PNC), negative = inhibition was inactive: 3.06%. In the case of `Cc1ccc(Nc2nnc(SC3CCOC3=O)s2)cc1` (centres undefined), the activity change (PNC), negative = inhibition is reported as inconclusive: -68.4%. In the case of `Cc1cccc(-c2nnc(SCC(=O)NCc3ccc4c(c3)OCO4)n2C)c1`, the activity change (PNC), negative = inhibition is reported as inactive: -6.95%. With `COC(=O)c1sc(NC(=O)c2cccc([N+](=O)[O-])c2)c(C(N)=O)c1C` the activity change (PNC), negative = inhibition was inconclusive: -74.3%. For `CCOCCCNC(=O)Cn1cc2c(n1)CCCCC2`, the activity change (PNC), negative = inhibition was inconclusive: -48.2%. With `CS(=O)(=O)N1CCC(C(=O)Nc2ccccc2)CC1` the activity change (PNC), negative = inhibition was inconclusive: -48.9%. With `N#C/C(C(=O)NCc1ccco1)=C1/SC(Cc2ccc(F)cc2)C(=O)N1c1ccccc1` (centres undefined) the activity change (PNC), negative = inhibition was inconclusive: -38.3%. With `CCOC(=O)c1ccc(NS(=O)(=O)c2ccc(SC)cc2)cc1` the activity change (PNC), negative = inhibition was inactive: -26.9%. For `Cc1cccc(Cn2cnc3c(NS(C)(=O)=O)c(C)c(C)cc32)c1`, the activity change (PNC), negative = inhibition was inconclusive: -33.4%. For `CCCCN=C(Nc1ccc(Cl)cc1)c1cccnc1`, the activity change (PNC), negative = inhibition was inconclusive: -45.1%. For `CCOC(=O)c1cn(Cc2c(C)c(C)c(C)c(C)c2C)nn1`, the activity change (PNC), negative = inhibition was inactive: 18.3%. In the case of `CCOC(=O)CSc1nnc(CNc2cccc(Cl)c2)n1C`, the activity change (PNC), negative = inhibition is reported as inconclusive: -37.9%. With `CC(/C=N/NC(=O)c1cc(-c2cccnc2)nc2c1c(C)nn2-c1ccccc1)=C\c1ccccc1` the activity change (PNC), negative = inhibition was inactive: -29.3%. For `Cn1c(CCNC(=O)c2cccs2)nnc1SCC(=O)N1CCN(c2ccccc2)CC1`, the activity change (PNC), negative = inhibition was inconclusive: -59.2%. In the case of `O=c1oc(-c2cccs2)nc2sc3c(c12)CCCC3`, the activity change (PNC), negative = inhibition is reported as inconclusive: -57.8%. For `COc1ccc(CCNC(=O)Cn2nnc(-c3ccc(N(C)C)cc3)n2)cc1OC`, the activity change (PNC), negative = inhibition was inconclusive: -68.2%. For `Cc1cc(C)c[n+](C(C)C(=O)c2ccc(-c3ccccc3)cc2)c1` (centres undefined), the activity change (PNC), negative = inhibition was inactive: -17%. With `CN(C1CCCCC1)S(=O)(=O)c1ccc(S(=O)(=O)N2CCCC2)cc1` the activity change (PNC), negative = inhibition was inconclusive: -42.1%. With `Cc1ccc(C(=O)/C=C/c2ccc(-c3ccc(C)cc3)o2)cc1` the activity change (PNC), negative = inhibition was inactive: -24%. With `CCOCCCNC(=O)CCSc1ccc(C)cc1` the activity change (PNC), negative = inhibition was inactive: -25.4%. With `COC(=O)c1ccc(C(=O)OC)c(NS(C)(=O)=O)c1` the activity change (PNC), negative = inhibition was inconclusive: -52.1%. In the case of `O=C(COC(=O)c1cccc(C(=O)OCC(=O)NCc2ccc(F)cc2)n1)NCc1ccc(F)cc1`, the activity change (PNC), negative = inhibition is reported as inactive: 16.9%. For `CCN(CC)S(=O)(=O)c1ccc2c(c1)nc(SC(C)C(N)=O)n2-c1ccc(OC)cc1` (centres undefined), the activity change (PNC), negative = inhibition was inconclusive: -39.2%. With `Cc1ccc(/C=c2/sc3n(c2=O)CCCN=3)o1` the activity change (PNC), negative = inhibition was inactive: 231%. In the case of `COc1nc(Nc2ccc(C(C)=O)cc2)nc(OC)n1`, the activity change (PNC), negative = inhibition is reported as inconclusive: -43.1%. With `Cc1cc(=O)oc2cc(NC(=O)c3cc4ccccc4o3)ccc12` the activity change (PNC), negative = inhibition was inactive: 30.4%. In the case of `C(=C\CSc1nnnn1-c1ccccc1)/CSc1nnnn1-c1ccccc1`, the activity change (PNC), negative = inhibition is reported as inconclusive: -33.4%. In the case of `CCNc1ccc(Br)cc(C(=O)/C=C/c2ccc3c(c2)OCO3)c1=O`, the activity change (PNC), negative = inhibition is reported as inactive: -21.2%. In the case of `CCCCCSc1nnc2c(n1)OC(C)N(C(C)=O)c1ccccc1-2` (centres undefined), the activity change (PNC), negative = inhibition is reported as inconclusive: -65.9%. For `CC(OC(=O)c1ccccc1N1C(=O)C2C3CCC(C3)C2C1=O)C(=O)c1ccccc1` (centres undefined), the activity change (PNC), negative = inhibition was inactive: -15.7%. With `COc1ccccc1/C=C/C(C)=O` the activity change (PNC), negative = inhibition was inactive: 25.2%. In the case of `CCc1ccc(NC(=S)Nc2cccc(OC)c2)cc1`, the activity change (PNC), negative = inhibition is reported as inactive: 87.1%. In the case of `CC1(C)C=C(c2ccc(C=O)s2)CC(C)(C)N1C=O`, the activity change (PNC), negative = inhibition is reported as inactive: -19.8%. With `CCCOc1ccc(Br)cc1/C=N/NC(=O)c1cc(OC)c(OC)c(OC)c1` the activity change (PNC), negative = inhibition was inconclusive: -55.1%. With `CCn1c(SCC(=O)N/N=C/c2ccc(OC)c(OC)c2)nc2ccccc21` the activity change (PNC), negative = inhibition was inactive: -17.1%. For `O=C(Nc1ccc(Br)cc1)c1ccccc1CC[N+](=O)[O-]`, the activity change (PNC), negative = inhibition was inconclusive: -73%. In the case of `Cc1cc(C)cc(CSCC(=O)N/N=C/c2ccc(OCC(=O)NCc3ccco3)cc2)c1`, the activity change (PNC), negative = inhibition is reported as inconclusive: -62.1%. With `c1ccc(-n2ncc3c(N4CCCCC4)ncnc32)cc1` the activity change (PNC), negative = inhibition was inactive: 15.3%. In the case of `COc1cccc(-c2nn(C)c3sc(C(=O)Nc4ccc5c(c4)OCCO5)cc23)c1`, the activity change (PNC), negative = inhibition is reported as inconclusive: -47.6%. In the case of `O=C(Cc1cccs1)NCC1CCCO1` (centres undefined), the activity change (PNC), negative = inhibition is reported as inconclusive: -33%. For `O=C(CSc1nnc(-c2ccco2)o1)NCC(=O)c1ccccc1`, the activity change (PNC), negative = inhibition was inconclusive: -60.1%.
